Assay results reported in publication PMC10518977.

Amino acid sequences for entries named in this document (tags omitted). Residues count along the entry.
UniProt P37023, residues 22-503: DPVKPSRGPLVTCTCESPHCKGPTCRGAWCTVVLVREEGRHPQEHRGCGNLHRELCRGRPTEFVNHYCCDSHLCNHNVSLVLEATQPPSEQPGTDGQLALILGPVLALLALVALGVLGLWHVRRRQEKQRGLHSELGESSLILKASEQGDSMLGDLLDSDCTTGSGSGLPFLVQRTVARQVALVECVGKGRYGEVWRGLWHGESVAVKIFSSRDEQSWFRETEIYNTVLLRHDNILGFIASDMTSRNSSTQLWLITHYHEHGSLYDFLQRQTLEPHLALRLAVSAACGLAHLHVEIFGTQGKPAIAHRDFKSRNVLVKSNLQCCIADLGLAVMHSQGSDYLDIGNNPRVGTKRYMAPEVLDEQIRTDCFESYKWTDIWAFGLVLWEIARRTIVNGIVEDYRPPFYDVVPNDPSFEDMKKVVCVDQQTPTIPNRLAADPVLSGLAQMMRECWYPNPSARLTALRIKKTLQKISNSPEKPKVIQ

Target: Full-length ACVRL1-Flag (Activin A receptor-like type 1) (UniProt P37023)
Assay: affinity purification with mass spectrometry; HCT116 cells transfected with ACVRL1-Flag or vector-Flag (pENTER); IP with anti-DYKDDDDK magnetic agarose, five washes with PBS, SDS-PAGE, LC-MS

B1: Glutathione peroxidase 2 (GPX2), endogenous (enzyme, UniProt P18283 1-190)
chain: MAFIAKSFYDLSAISLDGEKVDFNTFRGRAVLIENVASLUGTTTRDFTQLNELQCRFPRRLVVLGFPCNQFGHQENCQNEEILNSLKYVRPGGGYQPTFTLVQKCEVNGQNEHPVFAYLKDKLPYPYDDPFSLMTDPKLIIWSPVRRSDVAWNFEKFLIGPEGEPFRRYSRTFPTINIEPDIKRLLKVAI
For B1, the binding was “binds”.

Results are given in words; binding and its absence hold for the method and conditions named. Binding seen in cells or lysates may run through a third protein. Here binding means that the protein was enriched with, or labelled near, the bait; the list need not be complete.
